For assay [1], the target named is BRL3 with C-terminal mVenus or mCherry (FRET-FLIM construct) (Arabidopsis thaliana) (UniProt Q9LJF3). The assay is described as follows: FRET-FLIM, mVenus/mCherry fusions, fluorescence lifetimes of >20 images.
The target in assay [2] is BRL3 (BRASSINOSTEROID RECEPTOR LIKE 3), full length, fused to a half of YFP (BiFC construct) (Arabidopsis thaliana) (UniProt Q9LJF3). The assay is described as follows: BiFC (split YFP) in Nicotiana benthamiana leaves.
The target is the same in assay [3]. The assay is described as follows: BiFC (split YFP) in Nicotiana benthamiana leaves, confocal microscopy.
Assay [4] deals with BRL3 with C-terminal mVenus or mCherry (FRET-FLIM construct) (Arabidopsis thaliana) (UniProt Q9LJF3). The assay is described as follows: FRET-FLIM, mVenus/mCherry fusions.

By UniProt entry, the sequences of proteins in these tests, tags left out. Where a name states a change or a piece, a line headed by the entry shows the natural chain unless it says otherwise.
UniProt Q9LJF3: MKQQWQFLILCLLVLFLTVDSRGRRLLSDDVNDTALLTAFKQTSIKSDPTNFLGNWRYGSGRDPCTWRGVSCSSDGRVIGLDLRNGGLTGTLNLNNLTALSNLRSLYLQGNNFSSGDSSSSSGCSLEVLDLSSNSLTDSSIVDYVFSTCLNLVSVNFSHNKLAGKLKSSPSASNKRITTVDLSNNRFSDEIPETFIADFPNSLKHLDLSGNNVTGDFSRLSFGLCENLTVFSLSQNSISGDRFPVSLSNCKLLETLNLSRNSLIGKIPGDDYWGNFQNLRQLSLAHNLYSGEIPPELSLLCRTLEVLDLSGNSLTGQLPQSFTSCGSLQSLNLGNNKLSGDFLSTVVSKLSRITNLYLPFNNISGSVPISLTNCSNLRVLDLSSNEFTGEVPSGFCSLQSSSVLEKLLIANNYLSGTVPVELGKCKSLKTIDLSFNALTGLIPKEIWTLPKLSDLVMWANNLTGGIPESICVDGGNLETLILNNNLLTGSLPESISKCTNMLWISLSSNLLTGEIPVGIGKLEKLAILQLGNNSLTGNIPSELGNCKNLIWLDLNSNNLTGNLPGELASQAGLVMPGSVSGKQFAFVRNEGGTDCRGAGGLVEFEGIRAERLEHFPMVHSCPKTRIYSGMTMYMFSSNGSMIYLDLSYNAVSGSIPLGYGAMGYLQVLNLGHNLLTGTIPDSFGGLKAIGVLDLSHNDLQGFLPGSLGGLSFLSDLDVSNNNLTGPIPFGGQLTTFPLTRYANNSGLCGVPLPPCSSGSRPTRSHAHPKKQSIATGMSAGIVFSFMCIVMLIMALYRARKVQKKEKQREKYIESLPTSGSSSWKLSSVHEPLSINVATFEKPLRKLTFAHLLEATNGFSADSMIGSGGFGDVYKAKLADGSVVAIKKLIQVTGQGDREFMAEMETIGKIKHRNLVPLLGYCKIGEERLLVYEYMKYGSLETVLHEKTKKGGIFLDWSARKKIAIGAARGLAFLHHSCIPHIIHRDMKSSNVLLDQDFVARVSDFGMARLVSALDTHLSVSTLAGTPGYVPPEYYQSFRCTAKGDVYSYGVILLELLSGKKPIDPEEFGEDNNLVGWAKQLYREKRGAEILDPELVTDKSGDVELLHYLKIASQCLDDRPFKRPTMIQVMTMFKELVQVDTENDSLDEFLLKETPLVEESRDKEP

No constants are given. Whether binding was seen depends on the method and setting. Some binding calls cover weakened binding; strength is not graded here. For some of these results: Where a sequence is shown, tags or fusion partners need not be part of it.

B1: BAK1 with C-terminal mVenus or mCherry (FRET-FLIM construct) (receptor, Arabidopsis, UniProt Q94F62 26-615, looked up, not shown: large carriers)
chain: NAEGDALSALKNSLADPNKVLQSWDATLVTPCTWFHVTCNSDNSVTRVDLGNANLSGQLVMQLGQLPNLQYLELYSNNITGTIPEQLGNLTELVSLDLYLNNLSGPIPSTLGRLKKLRFLRLNNNSLSGEIPRSLTAVLTLQVLDLSNNPLTGDIPVNGSFSLFTPISFANTKLTPLPASPPPPISPTPPSPAGSNRITGAIAGGVAAGAALLFAVPAIALAWWRRKKPQDHFFDVPAEEDPEVHLGQLKRFSLRELQVASDNFSNKNILGRGGFGKVYKGRLADGTLVAVKRLKEERTQGGELQFQTEVEMISMAVHRNLLRLRGFCMTPTERLLVYPYMANGSVASCLRERPESQPPLDWPKRQRIALGSARGLAYLHDHCDPKIIHRDVKAANILLDEEFEAVVGDFGLAKLMDYKDTHVTTAVRGTIGHIAPEYLSTGKSSEKTDVFGYGVMLLELITGQRAFDLARLANDDDVMLLDWVKGLLKEKKLEALVDVDLQGNYKDEEVEQLIQVALLCTQSSPMERPKMSEVVRMLEGDGLAERWEEWQKEEMFRQDFNYPTHHPAVSGWIIGDSTSQIENEYPSGPR
With B1, the binding result in assay [1] is “binds”.

B2: KIN7, full length, fused to a half of YFP (BiFC construct) (receptor, not shown: large carriers)
chain: SDLESDRRALLAVRNSVRGRPLLWNMSASSPCNWHGVHCDAGRVTALRLPGSGLFGSLPIGGIGNLTQLKTLSLRFNSLSGPIPSDFSNLVLLRYLYLQGNAFSGEIPSLLFTLPSIIRINLGENKFSGRIPDNVNSATRLVTLYLERNQLSGPIPEITLPLQQFNVSSNQLNGSIPSSLSSWPRTAFEGNTLCGKPLDTCEAESPNGGDAGGPNTPPEKKDSDKLSAGAIVGIVIGCVVGLLLLLLILFCLCRKRKKEENVPSRNVEAPVAAATSSAAIPKETVVVVPPAKATGSESGAVNKDLTFFVKSFGEFDLDGLLKASAEVLGKGTVGSSYKASFEHGLVVAVKRLRDVVVPEKEFRERLHVLGSMSHANLVTLIAYYFSRDEKLLVFEYMSKGSLSAILHGNKGNGRTPLNWETRAGIALGAARAISYLHSRDGTTSHGNIKSSNILLSDSYEAKVSDYGLAPIISSTSAPNRIDGYRAPEITDARKISQKADVYSFGVLILELLTGKSPTHQQLNEEGVDLPRWVQSVTEQQTPSDVLDPELTRYQPEGNENIIRLLKIGMSCTAQFPDSRPSMAEVTRLIEEVSHSSGSPNPVSD
Regarding B2, the binding entry in assay [2] and in assay [3] was “binds” each time.

B3: KIN7 with C-terminal mVenus or mCherry (FRET-FLIM construct) (receptor, not shown: large carriers)
chain: B2 chain
As for B3, the binding result in assay [1] and in assay [4] was “binds” throughout.

B4: ERD14 (Early-Response to Desiccation 14), full length, fused to a half of YFP (BiFC construct) (protein, not shown: large carriers)
chain: AEEIKNVPEQEVPKVATEESSAEVTDRGLFDFLGKKKDETKPEETPIASEFEQKVHISEPEPEVKHESLLEKLHRSDSSSSSSSEEEGSDGEKRKKKKEKKKPTTEVEVKEEEKKGFMEKLKEKLPGHKKPEDGSAVAAAPVVVPPPVEEAHPVEKKGILEKIKEKLPGYHPKTTVEEEKKDKE
For the molecule B4, the binding entry in assay [2] and in assay [3] was “binds” each time.

The record behind these values is patent US20250340603A1, “A METHOD FOR MODULATING PLANT ADAPTATION TRAITS” (CRAG (Centre de Recerca en Agrigenòmica), priority 2021, published 2025).
